According to patent US10092526B2, “Compositions and methods for treating respiratory injury or disease” (University of Pittsburgh—Of the Commonwealth System of …, priority 2013, dated 2018):
For at least one compound, name, drawing or mass did not settle the structure.

System: Pseudomonas aeruginosa strain PA103
Experiment: Pseudomonas induced pneumonia, Compound 005 (Example 3)
Assay type: in vivo, mice
Conditions: 100 ug IP

c1ccc(-c2ccc(CNCCNCc3ccc(-c4ccccn4)cc3)cc2)nc1 [Compound 005]
adverse effects of Pseudomonas on lung mechanics (PA103 10^4 CFU/mouse i.t., 18 hours): significantly ameliorated
lung resistance (PA103, vs vehicle only mice, FIG. 2A): decreased
elastance (PA103, vs vehicle only mice, FIG. 2B): reduced
compliance (PA103, vs vehicle only mice, FIG. 2C): increased
lung volume (PA103, vs vehicle only mice, FIG. 2D): improved
cell infiltrates (H&E staining) (PA103 infected mice vs vehicle only, FIG. 4): significantly reduced
lavage protein concentration (PA103 infected mice, FIG. 3A): significantly decreased
lavage cell counts (PA103 infected mice, FIG. 3B): significantly decreased
lavage pro-inflammatory cytokine levels (PA103 infected mice, FIG. 3C): significantly decreased
